Experimental data from PubChem BioAssay AID977622 (Broad Institute, 2014).
This is one part of the list. The main result of the screen is listed elsewhere. These columns were measured beside it and carry no call.

What was measured:
[1] = wild-type E. coli growth inhibition versus h38 humanized strain – h38 mutant RFP, wild-type GFP, cherry-pick, dose response (AID 977622); conditions: E. coli mixed culture, 24 h, total growth OD600 at 50 uM
[2] = tested on: E. coli h38 humanized mutant ribosome RFP fluorescence, mixed culture, 24 h; assay: as above; conditions: h38 mutant RFP at 50 uM

Structure (SMILES)	activity change [1]	activity change [2]
COc1ccc(C(=O)Nc2ccc3nc(C)sc3c2)cc1OC	-31.8%	
COC(=O)C1CCN(C(=O)c2ccc(OC)c(S(=O)(=O)N3CCCc4ccccc43)c2)CC1	-15.7%	-13.1%
CCc1cccc(NC(=O)CN(C)S(=O)(=O)c2cccc3cccnc23)c1	-13.9%	-22.2%
OCCCc1cn(-c2ccccc2)c2ccccc12	-80.7%	-3.09%
Clc1ccc(-c2cn(-c3ccccc3)c3[n+]2CCS3)cc1	-10.6%	28.5%
CCOc1ccc(NC(=O)CN2C(=O)COc3ccc(S(=O)(=O)N4CCCC4)cc32)cc1	-41.6%	-13%
O=S(=O)(NC1c2cccc3cccc(c23)C1Sc1ncccn1)c1ccccc1 (stereo not drawn)	-50.4%	-24.1%
Cc1nn(Cc2cccc(F)c2)c(C)c1NC(=O)c1c(Cl)cnn1C	3.08%	3.5%
CCc1nn2cc(C(=O)c3cc(Cl)ccc3O)cnc2c1-c1ccc(F)cc1	-19.2%	
FC(F)(F)c1ccc(Cl)c(-n2c(Cc3cccs3)n[nH]c2=S)c1	-47.4%	-4.18%
Cc1ccsc1C(=O)OCC(=O)N1CCc2ccccc2C1	-19.3%	3.61%
O=C(Cn1c(CO)nc2ccccc21)NCCc1ccc(F)cc1	-40.7%	47.8%
CCN(CC)c1nc(Oc2ccc(C(=O)OC)cc2)nc(N2CCOCC2)n1	-15.4%	3.47%
CC(C)C[C@H]1COc2cc(Br)ccc2S(=O)(=O)N1	-43.1%	-40.6%
CC(=O)Nc1ccc2nc3ccccc3nc2c1	-14.9%	3.93%
Cc1cc2c(sc3ccccc32)c(C)n1	-35.3%	-41%
CCc1ccn2cc(-c3ccc4c(c3)OCO4)nc2c1	-39.5%	
COc1ccc(NC(=O)CSc2nnc(Cc3ccccc3)o2)c(OC)c1	-23.6%	
CCc1nnc(NS(=O)(=O)c2ccc(NC(=O)c3cccc(Cl)c3)cc2)s1	-37%	17.4%
COc1ccccc1-c1nnc(C2CCN(S(=O)(=O)c3cccc([N+](=O)[O-])c3)CC2)o1	-19.2%	-6.33%
O=C1CCCN1c1ccc([N+](=O)[O-])cc1	-15.5%	11.8%
Cc1cc2oc(C(=O)N3CCN(Cc4ccccc4)CC3)c(C)c2cc1C	-89.7%	-0.078%

Structure (SMILES)	activity change [1]	activity change [2]
COCCNC(=O)c1cc2c(-c3ccc(Cl)cc3)nn(C)c2s1	-63%	39.6%
COc1cccc(Nc2nc(N)c([N+](=O)[O-])c(N3CCOCC3)n2)c1	-20.7%	-9.44%
Cc1occc1C(=O)Nc1ccc2c(c1)CCC2	-35.6%	-6.47%
COCC#Cc1ccc2c(c1)O[C@@H](CN(C)S(=O)(=O)c1cccc(F)c1)[C@@H](C)CN([C@H](C)CO)S2(=O)=O	-41.9%	0.571%
COc1ccccc1OCC(=O)Nc1ccc(S(=O)(=O)N2CCCCCC2)cc1	-28%	5.36%
CN1CCN(C(=O)C[C@H]2CC[C@H]3[C@@H](COC[C@H](O)CN3C(=O)Nc3ccc(Cl)cc3)O2)CC1	-68%	60.1%
COc1cc(-c2cc3nc(NCCc4ccncc4)ccn3n2)cc(OC)c1OC	-37.7%	-28.6%
COc1ccc(/C=C/c2nc3ccccc3n2Cc2ccccc2OC)cc1	-32.5%	32.2%
COCC(=O)N1[C@@H]2CN(C(=O)Nc3ccccc3F)c3ccccc3[C@@H]2[C@@H]1CO	-1.19%	10.2%
Cc1ccc(NC(=O)CN(C)C(=O)Cc2coc3cc(C)c(C)cc23)cc1	-62.5%	57.7%
Cc1cc(C)c(C#N)c(N2CCN(c3ccccc3)CC2)n1	-66%	22%
O=C(c1csc(Nc2cccc3ccccc23)n1)N1CCCC1	-61%	93.5%
Cc1cc(C)cc(NC(=O)c2cccc(NC(=O)c3ccco3)c2)c1	-56.8%	-17.6%
CN(C(=O)COc1ccccc1C(=O)NCCOc1ccccc1)c1ccccc1	-17.2%	6.79%
O=C(Nc1cccc(Cl)c1)N1C[C@H]2[C@@H](c3ccccc31)[C@@H](CO)N2C(=O)c1ccncc1	-15.9%	13.2%
Cc1ccc(Cc2c(-c3cccc(Br)c3)nc3ccc(C)cn23)cc1	-6.5%	1.94%
CC(C)C#Cc1ccc([C@@H]2[C@H](CO)N3CCCCN(S(=O)(=O)Cc4ccccc4)C[C@@H]23)cc1	-50.5%	-52.3%
CC(C)CC#Cc1ccc([C@H]2[C@@H](CO)N3CCCCN(S(=O)(=O)Cc4ccccc4)C[C@H]23)cc1		-76.7%
Cc1c(Cc2ccccc2)sc(NC(=O)Cc2ccccc2)c1C(N)=O	-6.82%	69.7%
COc1cccc(NC(=O)CN(C)CC(=O)Nc2ccc(Br)cc2)c1	-32.7%	
Nc1ccccc1Nc1ccc([N+](=O)[O-])cc1[N+](=O)[O-]	-10.3%	
CCc1ccc2[nH]c(C(=O)Nc3ccc4c(c3)OCO4)cc2c1		-20.7%

Structure (SMILES)	activity change [1]	activity change [2]
C[C@@H]1CCCCO[C@@H](CN(C)C(=O)c2ccccc2)[C@H](C)CN([C@@H](C)CO)C(=O)c2cc(NC(=O)c3ccccc3)ccc2O1	-8.14%	4.93%
O=C(NCCCCc1ccccc1)c1cccc(NC(=O)C2CCCCC2)c1	-49.7%	
Cc1cc(C(=O)Nc2ccc(Cl)cc2)c(C)n1Cc1cccs1	-8.24%	13.4%
CN(Cc1ccc(F)cc1)C(=O)CN1CCN(S(=O)(=O)c2ccc3c(c2)OCCCO3)CC1	-43.5%	
Cn1nc(C(F)(F)F)c2cc(C(=O)Nc3ccc(C(F)(F)F)cc3)sc21	-64.8%	-62.6%
CN(C(=O)CN1C(=O)NC2(CCc3ccccc32)C1=O)C1CCCCC1 (stereo not drawn)	-17.8%	0.094%
O=C(O)c1cccnc1SCc1ccccc1Cl	-58.8%	-20.4%
COCCCNc1ccn2nc(-c3ccccc3)cc2n1	-0.707%	
CCOC(=O)C1NN=C(C(=O)c2ccccc2)C1c1ccc(OC)cc1 (stereo not drawn)	-3.12%	-12.8%
Cc1cccc(-c2ccc([C@H]3[C@@H](CO)N4CCCCN(S(=O)(=O)c5ccccc5C)C[C@H]34)cc2)c1	-66.5%	114%
CCc1cc2cc(OC)ccc2nc1SCC(=O)Nc1cc(OC)c(OC)cc1C(=O)O	-54.3%	-29.1%
COC(=O)[C@H](Cc1c[nH]c2ccccc12)NCc1cccc(B(O)O)c1	-18.9%	7.03%
COc1ccc(S(=O)(=O)N2CCCCN3[C@@H](CO)[C@H](c4ccc(C#CC(C)C)cc4)[C@@H]3C2)cc1	-63%	-2.31%
COC(=O)c1ccc2nc(-c3ccc(OC)c(OC)c3)c(Cc3ccc(C)cc3)n2c1	-18%	-4.27%
O=C(CN(CCO)c1ccccc1)Nc1cccc(S(=O)(=O)N2CCCC2)c1	-25.9%	-3.44%
O=C(CN1CCCCC1)Nc1ccccc1-c1ccccc1	-3.66%	-3.37%
C[C@@H]1CCCCO[C@H](CN(C)C)[C@H](C)CN([C@H](C)CO)C(=O)c2cc(NC(=O)Nc3cccc4ccccc34)ccc2O1	-12.5%	-1.74%
C[C@H]1CN([C@@H](C)CO)C(=O)c2c(c3ccccc3n2C)-c2ccccc2CO[C@@H]1CN(C)Cc1ccccc1	2.61%	20.5%
Fc1ccc(-n2cc(CNCCc3cccnc3)c(-c3ccccc3Cl)n2)cc1	-46.2%	-9.89%
COc1ccc(C(=O)C[n+]2ccc3c(c2)nc(-c2cc(OC)c(OC)cc2OC)n3C)cc1	-10.7%	
COc1ccc(C(=O)N2C[C@H]3[C@@H](c4ccccc42)[C@@H](CO)N3Cc2ccc(Cl)cc2)cc1	-90.9%	3.15%
CCCNC(=O)c1cc(C2CCCN(S(=O)(=O)c3cccc4cccnc34)C2)on1 (stereo not drawn)	-22.5%	0.356%

Whole records, looked up by structure:
CCOC(=O)C1NN=C(C(=O)c2ccccc2)C1c1ccc(OC)cc1 (stereo not drawn) is listed with activity change [1]: -3.12%; activity change [2]: -12.8%
COc1ccc(C(=O)N2C[C@H]3[C@@H](c4ccccc42)[C@@H](CO)N3Cc2ccc(Cl)cc2)cc1 is listed with activity change [1]: -90.9%; activity change [2]: 3.15%
Fc1ccc(-n2cc(CNCCc3cccnc3)c(-c3ccccc3Cl)n2)cc1 is listed with activity change [1]: -46.2%; activity change [2]: -9.89%
CCc1cc2cc(OC)ccc2nc1SCC(=O)Nc1cc(OC)c(OC)cc1C(=O)O is listed with activity change [1]: -54.3%; activity change [2]: -29.1%

Remaining list, next part

Structure (SMILES)	activity change [1]	activity change [2]
COc1ccccc1C1CC(=O)Oc2cc(C)c(Cl)cc21 (stereo not drawn)	18.5%	
COc1ccc(C(=O)Cn2c(C)nc([N+](=O)[O-])c2Br)cc1	0.434%	-8.8%
C#CCOc1nc(Nc2cccc([N+](=O)[O-])c2)nc(OCC#C)n1	-3.82%	
Cc1ccc(N2C(=S)NC3c4cc(Cl)ccc4OC2(C)C3C(=O)N(C)C)cc1 (stereo not drawn)	-13.4%	
Cc1ccc(NC(=O)C2CCCN(c3ncnc4c3nc3n4CCCCC3)C2)cc1Cl (stereo not drawn)	-17.5%	
Cc1cc(Cl)n2ncc(-c3ccccc3)c2n1	-73.5%	
O=S(=O)(c1ccc(F)cc1)N1C[C@@H]2N[C@H](C1)C2c1ccc(/C=C/c2ccccc2)cc1 (stereo partly drawn)	-67.7%	11.1%
COc1ccc2oc(C)c(C(=O)c3ccccc3)c2c1	-53.1%	2.22%
COc1ccc(NC(=O)COC(=O)CCCOc2ccc(Cl)cc2Cl)cc1Cl	-42%	-22.2%
CN1CCN(C(=O)C[C@@H]2CC[C@@H]3[C@H](COC[C@H](O)CN3C(=O)Nc3ccc(Cl)cc3)O2)CC1	-65.9%	79.3%
Cc1ccc(-c2c[n+](CC(=O)OCc3ccccc3)c3n2CCC3)cc1	7.61%	45.1%
CC(=O)Nc1ccc(CNc2nc(NCCN(C)C)nc3cc(-c4ccccc4)sc23)cc1	-1.24%	-9.4%
CSCCC1NC(=O)N(C(C)C(=O)Nc2cc(Cl)cc(Cl)c2)C1=O (stereo not drawn)	-21.9%	1.87%
COc1cc2nc(Nc3ccc(F)cc3)nc(N)c2cc1OC	-5.73%	
O=C(Cn1c2[n+](c3ccc(C(F)(F)F)cc31)CCCCC2)c1ccc2c(c1)OCCO2	-44.2%	11%
COc1ccccc1N1CCN(Cc2ccc(OC)c3ccccc23)CC1	-24.5%	-1.86%
Cc1ccccc1S(=O)(=O)c1cc2ccccc2nc1N	-34.7%	-8.93%
COC(=O)c1c(C)oc(C)c1S(=O)(=O)Nc1ccc(C(C)C)cc1	-30.6%	4.46%
O=C(NCc1ccc2c(c1)OCO2)C1CCC(=O)N1C1CCCCC1 (stereo not drawn)	-9.2%	20.2%
COc1ccccc1NC(=O)N1CCCCN2[C@@H](CO)[C@H](c3ccc(C#Cc4ccccc4)cc3)[C@@H]2C1	-41.8%	84.3%
CN(C)CCCNc1ccc(-c2cc(Nc3cccc(Cl)c3)ncn2)cn1	-33.2%	-8.06%
C[C@@H]1CCCCO[C@H](CN(C)C(=O)CCCN(C)C)[C@@H](C)CN([C@@H](C)CO)C(=O)c2cc(NC(=O)Nc3cccc4ccccc34)ccc2O1	-14.8%	16.9%
